Data as given in paper PMC7935953, “Insights on autophagosome–lysosome tethering from structural and biochemical characterization of human autophagy factor EPG5” (Communications Biology, 2021).
Results are given in words; binding and its absence hold for the method and conditions named.

By UniProt entry, the sequences of proteins in these tests, tags left out.
UniProt O95166: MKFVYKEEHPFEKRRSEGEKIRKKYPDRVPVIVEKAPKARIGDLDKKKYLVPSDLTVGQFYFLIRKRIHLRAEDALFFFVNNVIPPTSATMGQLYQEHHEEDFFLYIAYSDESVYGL

Target: GST-GABARAP (human) (UniProt O95166)
Experiment: pull-down; GST pull-down: purified GST-LC3A/B/C or GST-GABARAP/L1/L2 bait (200–240 µg) on glutathione resin, purified His-FLAG-hEPG5 or mutant (25–30 µg) as prey; 50 mM Tris pH 8.0, 150 mM NaCl, 5% glycerol, 0.01% Tween20, 0.5 mM DTT, 4 °C; anti-FLAG fluorescence western blot; both purified

B1: hEPG5^Δ1–1198 (domain or fragment, UniProt Q9HCE0 1199-2579)
chain: YHCDRSLLSSLVSWIVAGNITPSFVEGLATPTQVWFAWTVLNMESIFEEDSQLRRVIEGELVINSAFTPDQALKKAQTQLKLPIVPSLQRLLIYRWAHQALVTPSDHPLLPLIWQKFFLLYLHRPGPQYGLPIDGCIGRRFFQSPAHINLLKEMKRRLTEVADFHHAASKALRVPAEGSEGLPESHSGTPGYLTSPELHKELVRLFNVYILWLEDENFQKGDTYIPSLPKHYDIHRLAKVMQNQQDLWMEYLNMERIYHEFQETVGLWTQAKLESHSTPCSLSVQLDFTDPLLAKERVLSNLRKHEAPQPPLALHPTKPPVPVISSAVLLSQKDATQLVCTDLNLLQQQARTAALRESQQVALDGELLDTMPKQYVNREEQTTLHLECRGSSGKKCQGAAVVTVQFEGMHKNEAISQQLHVLRKEVKQLQAEAAKPPSLNIVEAAVHAENLITALVNAYKLQPTPGIQKVGISLFFTIVDYVSDETQRHPPTRQFFTSCIEILGQVFISGIKSECRKVLETILKNSRLCSLLSPFFTPNAAPAEFIQLYEQVVKFLSEDNSDMIFMLLTKFDLKQWLSATKPPLSDRTRLLESIHLALTAWGLEPDEDILMPFNLFCKHWTYLLLYQFPDQYSDILRLLMQSSAEQLLSPECWKATLRALGCCAPSCQQGAASTEGAVLPSSSDALLSDKQVMETIQWLSDFFYKLRLSKMDFKSFGLFSKWSPYMADVKTFLGYLVKRLIDLEMTCLAQDPTASRKTVLKSLHSVIIQLFKPWILVLEDNESSQQRHYPWLESDTVVASSIVQLFTDCIDSLHESFKDKLLPGDAGALWLHLMHYCEACTAPKMPEFILYAFHSTYRKLPWKDLHPDQMLMEAFFKVERGSPKSCFLFLGSVLCEVNWVSVLSDAWNSSPHPETRSMIVCLLFMMILLAKEVQLVDQTDSPLLSLLGQTSSLSWHLVDIVSYQSVLSYFSSHYPPSIILAKESYAELIMKLLKVSAGLSIPTDSQKHLDAVPKCQAFTHQMVQFLSTLEQNGKITLAVLEQEMSKLLDDIIVFNPPDMDSQTRHMALSSLFMEVLMMMNNATIPTAEFLRGSIRTWIGQKMHGLVVLPLLTAACQSLASVRHMAETTEACITAYFKESPLNQNSGWGPILVSLQVPELTMEEFLQECLTLGSYLTLYVYLLQCLNSEQTLRNEMKVLLILSKWLEQVYPSSVEEEAKLFLWWHQVLQLSLIQTEQNDSVLTESVIRILLLVQSRQNLVAEERLSSGILGAIGFGRKSPLSNRFRVVARSMAAFLSVQVPMEDQIRLRPGSELHLTPKAQQALNALESMASSKQYVEYQDQILQATQFIRHPGHCLQDGKSFLALLVNCLYPEVHYLDHIR
B1 was tested, and the binding was “no binding (tested: 25–30 µg hEPG5 on 200–240 µg bait)”.
